Laboratory results published in paper PMC10163288.
Some of the results follow.

B1: il2ra_site1_3nfp_sap_20_mot_7e5d6dae1157c95132ff0874b0fd9e6b_0001_1_af2_000000004_0001_1_12_H_._HEEHE_2288_0001_0000200007_0000001_0_0001 (protein)
chain: SLEEALEFLEEAAEERNDKALKWAVRDLEKLVRRGNEEQARRAVEHMLKVTGDPILEEVLKLLRK
B2: il2ra_site2_3nfp_normal_mot_HHH_b2_00232_000000252_0001_23_39_H_._HHH_b2_07199_0001_0000300013_0000001_0 (protein)
chain: SSSSSDEERVKELLEEVEELLRRGNPEEAQRVLREATQIAFEARNEELFALIADVAFLVFHSSSS
B3: il2ra_site2_3nfp_normal_mot_HHH_b2_06150_000000217_0001_39_53_H_._HHH_b1_01649_0001_0000300004_0000001_0 (protein)
chain: SSSSDIEERVEKLLEEAEERRKEGDPEAVEELLAEATHIAFENRNSRLFYLIAEVLFRLASSSSS
B4: il2ra_site2_2erj_normal_mot_HHH_b1_05525_000000147_0001_1_19_H_._HHH_b2_04646_0001_0000500042_0000001_0 (protein)
chain: SSSSSEEEERYEELWEELERAFREGDKELFRELAEELIELAEKLGSEASAEALEEILRRTSSSSS
B5: il2ra_site1_1z92_normal_mot_HHH_b2_00141_000000217_0001_1_20_H_._9e5b67f2fe50fe8120620fffc4d177d6_0001_0001_0000200026_0000001_0_af2pred_0001_af2pred_1 (protein)
chain: SDLEEIAEELERDPRFEEELARLVLKDAGGDPELARQFLKRIAKKAGIPPEVLERLEEIVEELVR
B6: il2ra_site1_2b5i_sap_11_mot_HHH_b1_01080_000000017_0001_1_16_H_._ff14572c0aba3614dea9969ee223935d_0001_1_0001_0000300038_0000001_0_0001_af2pred_dldesign_0_af2pr … (protein)
chain: SSSSSSSETKEEIERLLEEARRVDPARANKLLYEALVLARKNKNEELIKEIEAVFKELSSSSSSS
B7: il2ra_site1_3nfp_normal_mot_119b7766384adbe86006a62bce89dba1_0001_af2_000000052_0001_18_32_H_._HHH_b2_08089_0001_0000100002_0000001_0_af2pred_0001_af2pred (protein)
chain: SSSSDEEERRVEELLKQAKELYERGNPREAVEVIREALKLAAESDDPELYKLVREFLRELASSSS
B8: il2ra_site1_2b5i_sap_18_mot_HHH_b1_01384_af2_000000011_0001_43_55_H_._HHH_b1_03047_af2_0001_0000200010_0000001_0_0001_af2pred_dldesign_0_af2pred (protein)
chain: SSSSSEKKELVEELLAEARRLEREGRPEEARRLLLLARRVAKKAKDEELIKKVEALLKELESSSS
B9: il2ra_site2_2erj_normal_mot_90f6a21de4ed711cb697bb9f61d9c40c_0001_af2_000000135_0001_36_50_H_._HHH_b1_06682_af2_0001_0000600010_0000001_0_af2pred_0001_af2pred (protein)
chain: SSSSSDEEEELERFVEELVKELGLSEEQKRFLELLVEQLEESGASEELAREQLEFSARELSSSSS
B10: il2ra_site2_2erj_normal_mot_HHH_b1_08162_af2_000000254_0001_40_56_H_._HHH_b1_05945_0001_0000500015_0000001_0 (protein)
chain: SSSDIEEEIQRLFEEAKELLENGNPEEARKLISRAFELAYEANDPRLAARLQELAAKIFHGSSSS
B11: il2ra_site2_2erj_normal_mot_90f6a21de4ed711cb697bb9f61d9c40c_0001_af2_000000135_0001_36_50_H_._HHH_b2_04009_0001_0000200011_0000001_0_af2pred_0001_1_af2pred_swa … (protein)
chain: SSSSDEEELEQLVERLAKELGASEEAKEIAERVARILKELGFSEEEIELWLRLRLEHLTELSSSS
B12: il2ra_site1_1z92_sap_15_mot_HHH_b1_02810_af2_000000169_0001_43_57_H_._HHH_b1_08445_af2_0001_0000200012_0000001_0_0001_af2pred_dldesign_0_af2pred (protein)
chain: SPAEAALAALIEKLRSDNNPAGLYLADQIERAYKKDINSALKLARKAALASEDEALIAALDAVLA
B13: il2ra_site2_3nfp_normal_mot_HHH_b1_05627_af2_000000038_0001_43_56_H_._HHH_b2_06852_af2_0001_0000500015_0000001_0 (protein)
chain: SSSSDKSEEYLKIALELLREAREEGDEEAARSHAEAALIAAESLNDEEIEKELREILEELSSSSS
B14: il2ra_site2_2erj_sap_24_mot_HHH_b1_05944_000000221_0001_38_56_H_._HHH_b1_06467_0001_0000500030_0000001_0_0001 (protein)
chain: SEEELLEKAKELAPSPLAQDAIEQVEELLEEGDPEQAKLVLETLLRMARWLGDPELARVVEELLR
B15: il2ra_site2_3nfp_normal_mot_HHH_b1_01086_000000225_0001_20_36_H_._9b1ece5d1ebc94355a99c96473898622_0001_1_af2_0001_0000200004_0000001_0_af2pred_0001_af2pred (protein)
chain: SEEEELEREAREDPERFIRRAAEEARELGDFELFAFVAELASKVVNGEIPPEEAAKLVVRVLEES
B16: il2ra_site2_2erj_normal_mot_HHH_b1_03107_000000098_0001_39_52_H_._HHH_b1_02899_0001_0001100024_0000001_0 (protein)
chain: SSSSSDKELWERVAELLQEAAHIPDPEERREVLEEAERLAEELGDEALRRYVEYVARDLSSSSSS
B17: il2ra_site1_2b5i_sap_14_mot_HHH_b2_08221_000000034_0001_1_18_H_._0228f8d829d795bfd6a7b5a883d87c83_0001_0001_0000200009_0000001_0_0001 (protein)
chain: SSSSRLELMQFLLEVVDRLAEELGLDREERKKLVRAALKLAARGVDPEEAEEILEELAEKLSSSS
B18: il2ra_site2_2erj_sap_20_mot_HHH_b1_05749_af2_000000010_0001_23_39_H_._HHH_b2_03235_0001_0000600013_0000001_0_0001 (protein)
chain: SSSSSEDFVRVWELLKELAEAAQRGDEELFEELRRRAEELAQEGNNPLLERFVELQAEDQSSSSS

These binders were tested against il2ra, P01589 (assay: yeast display titration).

Apparent Kd, inactive:
B1 no binding seen
B2 no binding seen
B3 no binding seen
B4 no binding seen
B5 no binding seen
B6 no binding seen
B7 no binding seen
B8 no binding seen
B9 no binding seen
B10 no binding seen
B11 no binding seen
B12 no binding seen
B13 no binding seen
B14 no binding seen
B15 no binding seen
B16 no binding seen
B17 no binding seen
B18 no binding seen

A run of entries taken from the entries so far:
Apparent Kd, inactive:
B5 no binding seen
B6 no binding seen
B7 no binding seen
B8 no binding seen
